For assay [1], the target named is AP2-2 (rice (Oryza sativa japonica)) (UniProt Q84TB5). The experiment in a line: two-hybrid; yeast two-hybrid (Clontech); OsMADS1 ORF in the prey vector pGAD-T7, ORFs of AP2s in the bait vector pGBK-T7.
Assay [2] has as its target AP2-3 (rice (Oryza sativa japonica)) (UniProt Q8H443). The assay is described as above.

By UniProt entry, the sequences of proteins in these tests, tags left out.
UniProt Q84TB5: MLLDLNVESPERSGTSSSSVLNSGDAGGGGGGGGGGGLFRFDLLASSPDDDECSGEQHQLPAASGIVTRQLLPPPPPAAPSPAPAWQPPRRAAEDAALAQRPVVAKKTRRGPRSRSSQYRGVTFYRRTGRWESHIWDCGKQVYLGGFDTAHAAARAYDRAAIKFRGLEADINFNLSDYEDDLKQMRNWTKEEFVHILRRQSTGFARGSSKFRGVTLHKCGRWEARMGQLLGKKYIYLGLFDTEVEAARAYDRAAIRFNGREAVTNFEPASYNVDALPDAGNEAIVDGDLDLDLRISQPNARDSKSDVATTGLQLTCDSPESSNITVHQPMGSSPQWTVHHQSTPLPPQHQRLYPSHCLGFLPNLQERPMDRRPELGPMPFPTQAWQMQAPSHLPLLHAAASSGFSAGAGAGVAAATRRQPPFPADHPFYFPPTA
UniProt Q8H443: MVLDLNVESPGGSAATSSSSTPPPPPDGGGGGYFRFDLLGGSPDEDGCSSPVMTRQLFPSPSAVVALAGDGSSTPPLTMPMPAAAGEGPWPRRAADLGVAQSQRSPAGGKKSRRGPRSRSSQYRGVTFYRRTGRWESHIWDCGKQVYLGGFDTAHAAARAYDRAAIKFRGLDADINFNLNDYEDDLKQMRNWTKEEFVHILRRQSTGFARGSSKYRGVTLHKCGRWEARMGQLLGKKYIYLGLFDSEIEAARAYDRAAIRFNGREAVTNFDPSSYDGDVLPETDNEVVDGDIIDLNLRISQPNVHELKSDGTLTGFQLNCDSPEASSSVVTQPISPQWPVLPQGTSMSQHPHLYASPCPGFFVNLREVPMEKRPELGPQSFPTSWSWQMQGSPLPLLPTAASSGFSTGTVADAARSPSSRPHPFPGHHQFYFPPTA
UniProt Q10PZ9: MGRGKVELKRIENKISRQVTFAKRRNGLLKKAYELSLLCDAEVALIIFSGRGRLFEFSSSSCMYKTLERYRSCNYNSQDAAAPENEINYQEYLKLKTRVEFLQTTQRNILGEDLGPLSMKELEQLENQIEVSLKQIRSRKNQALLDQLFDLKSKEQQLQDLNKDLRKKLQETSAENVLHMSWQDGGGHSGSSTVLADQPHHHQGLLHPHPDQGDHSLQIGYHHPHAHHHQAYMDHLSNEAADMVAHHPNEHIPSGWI

Results are given in words; binding and its absence hold for the method and conditions named. Some entries that bind do so weakly or less than the wild type.

Turning to OsMADS1 (from UniProt Q10PZ9 1-257), the binding result in assay [1] and in assay [2] was “binds” throughout.

These data come from PMC5167762.
